Measurements reported in the supplement of paper PMC10849652.
The other results are listed elsewhere or left out.

The chains behind the UniProt entries cited, without tags or fusion partners. Where a name states a change or a piece, a line headed by the entry shows the natural chain unless it says otherwise.
UniProt Q53H54: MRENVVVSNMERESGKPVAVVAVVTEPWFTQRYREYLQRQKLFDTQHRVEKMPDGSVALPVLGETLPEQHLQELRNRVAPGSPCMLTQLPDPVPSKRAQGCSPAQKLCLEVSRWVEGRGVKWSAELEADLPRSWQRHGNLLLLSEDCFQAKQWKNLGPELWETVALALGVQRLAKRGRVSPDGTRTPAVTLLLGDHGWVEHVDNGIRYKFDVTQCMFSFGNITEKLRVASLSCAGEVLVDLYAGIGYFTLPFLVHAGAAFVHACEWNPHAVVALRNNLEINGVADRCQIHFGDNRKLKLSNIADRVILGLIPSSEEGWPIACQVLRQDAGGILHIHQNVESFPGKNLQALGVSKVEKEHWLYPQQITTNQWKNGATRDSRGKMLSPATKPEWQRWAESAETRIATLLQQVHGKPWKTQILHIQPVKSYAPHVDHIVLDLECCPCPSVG
UniProt Q6NXR4: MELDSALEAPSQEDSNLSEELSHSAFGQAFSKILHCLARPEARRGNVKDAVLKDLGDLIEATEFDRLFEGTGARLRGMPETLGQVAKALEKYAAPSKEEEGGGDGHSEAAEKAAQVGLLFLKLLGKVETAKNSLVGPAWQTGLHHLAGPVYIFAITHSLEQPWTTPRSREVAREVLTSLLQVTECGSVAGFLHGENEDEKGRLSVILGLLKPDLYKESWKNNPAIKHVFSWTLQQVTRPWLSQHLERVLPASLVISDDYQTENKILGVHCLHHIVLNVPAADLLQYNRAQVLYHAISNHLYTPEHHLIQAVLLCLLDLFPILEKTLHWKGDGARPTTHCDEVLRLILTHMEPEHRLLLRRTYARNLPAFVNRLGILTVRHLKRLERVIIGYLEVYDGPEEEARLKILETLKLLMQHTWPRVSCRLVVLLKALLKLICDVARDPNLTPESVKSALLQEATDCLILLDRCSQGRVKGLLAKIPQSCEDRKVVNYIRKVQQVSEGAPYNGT
UniProt Q15650: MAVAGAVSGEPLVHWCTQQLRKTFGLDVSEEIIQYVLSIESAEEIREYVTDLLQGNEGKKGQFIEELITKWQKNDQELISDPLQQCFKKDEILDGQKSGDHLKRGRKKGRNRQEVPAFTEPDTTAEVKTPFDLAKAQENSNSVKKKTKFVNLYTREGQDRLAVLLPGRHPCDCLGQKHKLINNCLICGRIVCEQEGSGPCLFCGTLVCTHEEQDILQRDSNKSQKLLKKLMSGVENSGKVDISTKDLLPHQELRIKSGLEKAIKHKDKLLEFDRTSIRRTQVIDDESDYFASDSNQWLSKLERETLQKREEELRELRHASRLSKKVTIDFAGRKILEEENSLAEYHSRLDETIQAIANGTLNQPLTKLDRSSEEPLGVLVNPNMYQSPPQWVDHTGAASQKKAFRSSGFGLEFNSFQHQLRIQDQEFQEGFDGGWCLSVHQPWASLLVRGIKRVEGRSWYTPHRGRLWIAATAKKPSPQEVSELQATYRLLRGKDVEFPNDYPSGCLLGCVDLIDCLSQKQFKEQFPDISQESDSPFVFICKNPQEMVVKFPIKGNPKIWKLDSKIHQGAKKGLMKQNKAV
UniProt Q9Y5R8, whole entry, looked up: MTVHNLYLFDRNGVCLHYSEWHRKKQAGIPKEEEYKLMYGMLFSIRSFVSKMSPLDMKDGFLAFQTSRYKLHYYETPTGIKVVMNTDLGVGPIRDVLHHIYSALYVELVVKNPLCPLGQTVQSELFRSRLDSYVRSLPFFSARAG
UniProt Q9Y5U2: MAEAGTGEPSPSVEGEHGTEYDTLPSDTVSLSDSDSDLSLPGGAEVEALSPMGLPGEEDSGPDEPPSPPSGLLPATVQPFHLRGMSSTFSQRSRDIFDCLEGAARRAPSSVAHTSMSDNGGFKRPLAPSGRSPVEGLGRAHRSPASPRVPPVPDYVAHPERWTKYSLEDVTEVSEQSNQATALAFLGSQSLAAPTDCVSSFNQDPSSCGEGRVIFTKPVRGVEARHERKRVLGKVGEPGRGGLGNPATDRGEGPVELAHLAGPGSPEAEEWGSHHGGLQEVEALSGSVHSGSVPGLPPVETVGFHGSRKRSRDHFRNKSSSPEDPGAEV
UniProt Q9NX07: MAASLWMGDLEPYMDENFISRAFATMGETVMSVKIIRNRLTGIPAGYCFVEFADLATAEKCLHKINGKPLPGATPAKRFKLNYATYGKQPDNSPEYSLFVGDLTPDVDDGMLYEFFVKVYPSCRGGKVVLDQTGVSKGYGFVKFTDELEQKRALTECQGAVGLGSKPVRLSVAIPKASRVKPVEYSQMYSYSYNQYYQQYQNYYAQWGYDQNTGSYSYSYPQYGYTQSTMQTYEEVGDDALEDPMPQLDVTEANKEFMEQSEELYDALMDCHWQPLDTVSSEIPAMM
UniProt Q2NL82: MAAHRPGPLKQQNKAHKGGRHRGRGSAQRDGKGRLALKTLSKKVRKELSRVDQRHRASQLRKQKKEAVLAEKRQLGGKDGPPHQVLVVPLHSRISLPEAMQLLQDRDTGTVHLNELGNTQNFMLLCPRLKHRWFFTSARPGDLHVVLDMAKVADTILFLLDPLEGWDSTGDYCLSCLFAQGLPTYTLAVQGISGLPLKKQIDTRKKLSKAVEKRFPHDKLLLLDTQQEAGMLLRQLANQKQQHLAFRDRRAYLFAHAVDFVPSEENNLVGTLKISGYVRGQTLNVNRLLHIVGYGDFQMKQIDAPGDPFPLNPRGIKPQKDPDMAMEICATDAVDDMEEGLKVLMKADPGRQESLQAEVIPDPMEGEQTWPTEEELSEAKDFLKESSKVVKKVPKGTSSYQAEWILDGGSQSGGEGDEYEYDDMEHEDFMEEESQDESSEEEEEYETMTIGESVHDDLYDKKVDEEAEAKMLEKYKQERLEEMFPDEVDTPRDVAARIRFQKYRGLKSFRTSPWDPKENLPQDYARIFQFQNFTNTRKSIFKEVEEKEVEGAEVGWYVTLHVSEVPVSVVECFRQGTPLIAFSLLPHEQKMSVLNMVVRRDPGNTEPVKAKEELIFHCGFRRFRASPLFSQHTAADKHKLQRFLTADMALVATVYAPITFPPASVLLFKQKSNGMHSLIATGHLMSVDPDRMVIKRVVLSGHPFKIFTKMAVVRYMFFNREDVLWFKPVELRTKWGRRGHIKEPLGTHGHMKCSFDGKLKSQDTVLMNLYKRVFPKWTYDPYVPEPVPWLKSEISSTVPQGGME
UniProt Q9UNY4: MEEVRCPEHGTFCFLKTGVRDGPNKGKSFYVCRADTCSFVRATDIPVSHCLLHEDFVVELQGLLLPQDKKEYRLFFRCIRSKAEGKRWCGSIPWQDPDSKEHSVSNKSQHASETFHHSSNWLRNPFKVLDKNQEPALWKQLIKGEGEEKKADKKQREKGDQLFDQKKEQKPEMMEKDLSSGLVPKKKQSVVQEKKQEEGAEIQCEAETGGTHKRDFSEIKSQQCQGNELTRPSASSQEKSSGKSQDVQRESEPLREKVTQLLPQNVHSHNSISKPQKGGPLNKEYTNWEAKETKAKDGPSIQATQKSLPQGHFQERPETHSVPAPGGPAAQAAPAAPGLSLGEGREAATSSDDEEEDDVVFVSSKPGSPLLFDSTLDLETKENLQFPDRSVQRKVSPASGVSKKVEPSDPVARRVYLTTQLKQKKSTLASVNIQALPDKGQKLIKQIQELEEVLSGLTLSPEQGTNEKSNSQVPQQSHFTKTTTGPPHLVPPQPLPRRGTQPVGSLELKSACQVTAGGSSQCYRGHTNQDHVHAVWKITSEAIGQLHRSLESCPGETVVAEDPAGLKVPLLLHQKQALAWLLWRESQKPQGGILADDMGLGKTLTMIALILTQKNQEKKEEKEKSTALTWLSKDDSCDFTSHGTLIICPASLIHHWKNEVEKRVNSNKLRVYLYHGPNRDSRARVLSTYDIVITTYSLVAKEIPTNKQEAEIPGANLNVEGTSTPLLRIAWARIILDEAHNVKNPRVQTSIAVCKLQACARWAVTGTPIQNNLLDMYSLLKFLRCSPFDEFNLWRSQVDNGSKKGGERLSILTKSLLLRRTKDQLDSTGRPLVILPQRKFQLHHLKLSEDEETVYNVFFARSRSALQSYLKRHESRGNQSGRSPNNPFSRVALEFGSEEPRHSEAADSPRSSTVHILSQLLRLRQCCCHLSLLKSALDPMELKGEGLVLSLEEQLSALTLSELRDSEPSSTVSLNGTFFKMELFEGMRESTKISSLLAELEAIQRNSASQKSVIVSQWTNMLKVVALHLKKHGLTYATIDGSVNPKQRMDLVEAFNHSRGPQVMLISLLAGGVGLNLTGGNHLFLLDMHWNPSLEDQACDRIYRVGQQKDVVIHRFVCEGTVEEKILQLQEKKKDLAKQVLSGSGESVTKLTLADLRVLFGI
UniProt Q15714: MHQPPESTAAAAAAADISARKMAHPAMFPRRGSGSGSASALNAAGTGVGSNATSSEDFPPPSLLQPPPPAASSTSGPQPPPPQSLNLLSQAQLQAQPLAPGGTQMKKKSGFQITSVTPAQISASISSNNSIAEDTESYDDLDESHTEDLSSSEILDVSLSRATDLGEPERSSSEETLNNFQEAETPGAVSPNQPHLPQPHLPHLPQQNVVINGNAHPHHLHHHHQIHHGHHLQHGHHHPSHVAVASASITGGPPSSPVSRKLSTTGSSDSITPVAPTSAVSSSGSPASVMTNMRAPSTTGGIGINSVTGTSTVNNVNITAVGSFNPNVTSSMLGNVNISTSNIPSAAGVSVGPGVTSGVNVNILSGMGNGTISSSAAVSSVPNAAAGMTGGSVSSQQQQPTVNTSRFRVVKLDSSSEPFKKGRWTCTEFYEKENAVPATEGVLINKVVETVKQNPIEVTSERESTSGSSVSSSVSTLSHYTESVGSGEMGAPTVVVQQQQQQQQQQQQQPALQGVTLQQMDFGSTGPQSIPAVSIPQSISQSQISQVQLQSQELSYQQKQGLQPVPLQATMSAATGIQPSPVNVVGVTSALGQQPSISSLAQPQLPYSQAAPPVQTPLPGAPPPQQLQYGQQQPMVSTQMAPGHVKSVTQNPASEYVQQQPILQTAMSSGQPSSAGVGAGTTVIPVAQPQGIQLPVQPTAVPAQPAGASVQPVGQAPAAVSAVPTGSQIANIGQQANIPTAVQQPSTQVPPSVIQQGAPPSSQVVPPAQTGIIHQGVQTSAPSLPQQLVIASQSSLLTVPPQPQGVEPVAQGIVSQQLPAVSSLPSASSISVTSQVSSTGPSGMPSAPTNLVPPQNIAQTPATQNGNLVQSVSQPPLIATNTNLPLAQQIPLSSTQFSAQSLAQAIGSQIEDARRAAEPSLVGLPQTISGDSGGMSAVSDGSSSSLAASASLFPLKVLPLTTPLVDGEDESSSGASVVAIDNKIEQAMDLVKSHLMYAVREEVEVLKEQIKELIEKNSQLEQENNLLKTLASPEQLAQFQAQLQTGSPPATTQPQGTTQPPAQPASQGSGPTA
UniProt Q9BRZ2: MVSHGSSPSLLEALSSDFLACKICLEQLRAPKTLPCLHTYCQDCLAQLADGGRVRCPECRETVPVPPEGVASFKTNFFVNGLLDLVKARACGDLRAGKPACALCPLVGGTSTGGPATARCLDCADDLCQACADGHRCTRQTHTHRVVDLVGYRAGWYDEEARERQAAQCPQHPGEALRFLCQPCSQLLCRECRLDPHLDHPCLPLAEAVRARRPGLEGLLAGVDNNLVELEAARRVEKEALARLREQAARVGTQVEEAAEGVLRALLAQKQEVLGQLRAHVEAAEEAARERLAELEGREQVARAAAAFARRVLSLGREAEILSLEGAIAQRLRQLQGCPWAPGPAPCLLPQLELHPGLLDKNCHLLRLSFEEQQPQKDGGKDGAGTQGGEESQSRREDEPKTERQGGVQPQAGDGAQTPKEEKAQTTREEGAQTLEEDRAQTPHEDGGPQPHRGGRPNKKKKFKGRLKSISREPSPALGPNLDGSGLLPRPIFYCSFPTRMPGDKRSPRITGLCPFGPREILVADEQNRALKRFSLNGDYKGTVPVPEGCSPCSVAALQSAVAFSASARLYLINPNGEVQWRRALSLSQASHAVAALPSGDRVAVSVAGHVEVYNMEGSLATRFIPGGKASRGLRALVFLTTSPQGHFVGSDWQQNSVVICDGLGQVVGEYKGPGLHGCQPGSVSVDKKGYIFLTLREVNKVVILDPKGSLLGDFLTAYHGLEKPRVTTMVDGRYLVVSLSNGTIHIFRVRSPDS
UniProt P43897: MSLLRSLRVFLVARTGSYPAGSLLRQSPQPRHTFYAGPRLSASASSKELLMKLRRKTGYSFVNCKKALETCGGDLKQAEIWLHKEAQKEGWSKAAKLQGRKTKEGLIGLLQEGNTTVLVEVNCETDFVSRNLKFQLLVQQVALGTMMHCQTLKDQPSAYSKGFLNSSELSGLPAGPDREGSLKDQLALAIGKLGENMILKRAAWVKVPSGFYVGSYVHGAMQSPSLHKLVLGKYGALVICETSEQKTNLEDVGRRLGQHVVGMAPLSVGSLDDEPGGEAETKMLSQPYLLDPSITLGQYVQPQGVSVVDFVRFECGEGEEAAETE

Legend:
Experiment in all cases: log2 fold change, soluble protein after heating vs DMSO (PISA); higher = thermal stabilisation; K562 lysate, 10 uM; active = over 0.2 and 3.5 SD of the protein, either way, in both replicates (recomputed)
ibrutinib = compound: C=CC(=O)N1CCC[C@@H](n2nc(-c3ccc(Oc4ccccc4)cc3)c3c(N)ncnc32)C1 [ibrutinib]
Summary of the method: (§1)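 Soluble protein was defined as the supernatant remaining after 21,000xg for 90 min, following pooling of heated aliquots and adjustment to 0.5% NP-40 at 4°C. Before that, crude K562 extract at 1 mg/mL protein in PBS pH 7.4 with 1 mM MgCl2 was treated with 10 μM compound for 30 min and heated for 3 min across 48°C-58°C. Quantification used TMTpro 16plex LC-MS/MS with channel sums equalised, and values are log-two fold changes in thermal stability relative to solvent controls from duplicates.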

[1] = compound: CC(=O)c1cnc2ccc(-c3cc(Cl)c(O)c(Cl)c3)nc2c1N[C@H]1CC[C@H](CN(C)C)CC1
Summary of the method: as §1

ralimetinib = compound: CC(C)(C)Cn1c(N)nc2ccc(-c3[nH]c(C(C)(C)C)nc3-c3ccc(F)cc3)nc21 [ralimetinib]
Summary of the method: as §1

[2] = compound: CC(C)(O)CC(=O)NCCn1ccc2ncnc(Nc3ccc(Oc4cccc(C(F)(F)F)c4)c(Cl)c3)c21
Summary of the method: as §1

[3] = compound: CC(C)C1=C2N=C(C=C(N2N=C1)NCC3=CC=CC=C3)NCCCCCCN
Summary of the method: as §1

[4] = compound: CC1=C(C(CC(=O)N1)C2=CC=C(C=C2)C(F)(F)F)C(=O)NC3=C(C=C4C(=C3)C=NN4)F
Summary of the method: as §1

[5] = compound: CC1=C(C2=C(C=C1)C(=O)C3=CC=CC=C3N2CCCN)C
Summary of the method: as §1

[6] = compound: CC1=C(C=C(C=C1)NC(=O)C2=CC(=CC=C2)C(C)(C)C#N)NC3=CC4=C(C=C3)N=CN(C4=O)C
Summary of the method: as §1

[7] = compound: CC1=C(C=C(C=C1)NC(=O)C2=CC(=CC=C2)N(C)C)NC(=O)C3=CC=C(C=C3)O
Summary of the method: as §1

[8] = compound: CC1=CC=C(C=C1)SC2=C3C=C(SC3=CN=C2)C(=O)N
Summary of the method: as §1

vemurafenib = compound: CCCS(=O)(=O)Nc1ccc(F)c(C(=O)c2c[nH]c3ncc(-c4ccc(Cl)cc4)cc23)c1F [vemurafenib]
Summary of the method: as §1

[9] = compound: CCCS(=O)(=O)Nc1ccc(F)c(C(=O)c2c[nH]c3ncc(Cl)cc23)c1F
Summary of the method: as §1

barasertib = compound: CCN(CCCOc1ccc2c(Nc3cc(CC(=O)Nc4cccc(F)c4)[nH]n3)ncnc2c1)CCOP(=O)(O)O [barasertib]
Summary of the method: as §1

[10] = compound: CC[C@@H]1C(=O)N(C)c2cnc(Nc3ccc(C(=O)NC4CCN(C)CC4)cc3OC)nc2N1C1CCCC1
Summary of the method: as §1

volasertib = compound: CC[C@@H]1C(=O)N(C)c2cnc(Nc3ccc(C(=O)N[C@H]4CC[C@H](N5CCN(CC6CC6)CC5)CC4)cc3OC)nc2N1C(C)C [volasertib]
Summary of the method: as §1

[11] = compound: CCn1c(C(=O)N(C2CC2)C2CC2)cc2c3c(ncn3C)c(Nc3cc(C)n(C)n3)nc21
Summary of the method: as §1

[12] = compound: CCn1cc(-c2ccnc3[nH]c(-c4cccc(CN(C)C)c4)cc23)c(-c2ccc(NC(=O)N(C)C)cc2)n1
Summary of the method: as §1

[13] = compound: CN1CCC(CNc2ccc3ncc(-c4cccc(OC(F)(F)F)c4)n3n2)CC1
Summary of the method: as §1

saracatinib = compound: CN1CCN(CCOc2cc(OC3CCOCC3)c3c(Nc4c(Cl)ccc5c4OCO5)ncnc3c2)CC1 [saracatinib]
Summary of the method: as §1

sotrastaurin = compound: CN1CCN(c2nc(C3=C(c4c[nH]c5ccccc45)C(=O)NC3=O)c3ccccc3n2)CC1 [sotrastaurin]
Summary of the method: as §1

Target | log2 fold change (ibrutinib) | log2 fold change [1] | log2 fold change (ralimetinib) | log2 fold change [2] | log2 fold change [3] | log2 fold change [4] | log2 fold change [5] | log2 fold change [6] | log2 fold change [7] | log2 fold change [8] | log2 fold change (vemurafenib) | log2 fold change [9] | log2 fold change (barasertib) | log2 fold change [10] | log2 fold change (volasertib) | log2 fold change [11] | log2 fold change [12] | log2 fold change [13] | log2 fold change (saracatinib) | log2 fold change (sotrastaurin)
TRIM44 (UniProt Q96DX7) | inactive: 0.031 | inactive: 0.124 | inactive: 0.032 | inactive: -0.013 | inactive: -0.037 | inactive: -0.021 | inactive: -0.004 | inactive: -0.044 | inactive: 0.022 | inactive: 0.086 | inactive: -0.085 | inactive: 0.095 | inactive: 0.066 | inactive: -0.075 | inactive: -0.014 | inactive: 0.003 | inactive: 0.146 | inactive: -0.031 | inactive: 0.023 | inactive: 0.044
TRMT12 (UniProt Q53H54) | inactive: -0.083 | inactive: -0.009 | inactive: 0.094 | inactive: 0.063 | inactive: -0.018 | inactive: -0.081 | inactive: -0.048 | inactive: 0.036 | inactive: 0.033 | inactive: -0.031 | inactive: 0.059 | inactive: -0.009 | inactive: 0.068 | inactive: -0.17 | inactive: -0.052 | inactive: 0.047 | inactive: -0.303 | inactive: 0.281 | inactive: -0.021 | inactive: -0.047
TTI2 (UniProt Q6NXR4) | inactive: 0.012 | inactive: 0.016 | inactive: 0.019 | inactive: -0.062 | inactive: -0.004 | inactive: -0.009 | inactive: 0.018 | inactive: -0.009 | inactive: -0.015 | inactive: -0.017 | inactive: -0.009 | inactive: 0 | inactive: 0.005 | inactive: -0.022 | inactive: -0.048 | inactive: -0.004 | inactive: 0 | inactive: 0.035 | inactive: 0.037 | inactive: 0.031
TRIP4 (UniProt Q15650) | inactive: 0 | inactive: 0.021 | inactive: -0.022 | inactive: -0.019 | inactive: -0.027 | inactive: -0.001 | inactive: -0.004 | inactive: 0.008 | inactive: 0.073 | inactive: 0.041 | inactive: 0.097 | inactive: 0.058 | inactive: 0.018 | inactive: -0.004 | inactive: -0.056 | inactive: -0.024 | inactive: -0.054 | inactive: 0.013 | inactive: 0.026 | inactive: -0.017
TRAPPC1 (UniProt Q9Y5R8) | inactive: -0.001 | inactive: -0.025 | inactive: -0.051 | inactive: 0.024 | inactive: -0.001 | inactive: -0.018 | inactive: 0.01 | inactive: 0.009 | inactive: 0.025 | inactive: -0.001 | inactive: -0.029 | inactive: 0.022 | inactive: 0.156 | inactive: 0.064 | inactive: 0.009 | inactive: -0.032 | inactive: -0.035 | inactive: 0.068 | inactive: -0.051 | inactive: -0.034
TSSC4 (UniProt Q9Y5U2) | inactive: 0.011 | inactive: -0.074 | inactive: 0.004 | inactive: 0.007 | inactive: 0.046 | inactive: -0.089 | inactive: -0.021 | inactive: 0.05 | inactive: 0 | inactive: -0.015 | inactive: 0.008 | inactive: -0.013 | inactive: -0.016 | inactive: 0.071 | inactive: -0.005 | inactive: 0.014 | inactive: -0.096 | inactive: 0.022 | inactive: -0.086 | inactive: -0.004
TRNAU1AP (UniProt Q9NX07) | inactive: -0.013 | inactive: -0.212 | inactive: 0.07 | inactive: -0.045 | inactive: 0.039 | inactive: -0.008 | inactive: 0.02 | inactive: -0.035 | inactive: 0.034 | inactive: 0.021 | active: -0.335 | inactive: 0.007 | inactive: 0.059 | inactive: 0.062 | inactive: -0.041 | inactive: 0.04 | inactive: -0.264 | inactive: 0.031 | inactive: 0.027 | inactive: -0.027
TRIM28 (UniProt Q13263) | inactive: 0.008 | inactive: 0.002 | inactive: -0.003 | inactive: 0.003 | inactive: 0.007 | inactive: -0.023 | inactive: 0 | inactive: -0.017 | inactive: -0.001 | inactive: 0.003 | inactive: -0.01 | inactive: 0.002 | inactive: -0.009 | inactive: -0.001 | inactive: 0.007 | inactive: -0.006 | inactive: -0.008 | inactive: 0.013 | inactive: 0 | inactive: -0.033
TRAF2 isoform 2 (UniProt Q12933) | inactive: -0.026 | inactive: -0.002 | inactive: 0.022 | inactive: -0.022 | inactive: -0.051 | inactive: -0.004 | inactive: -0.028 | inactive: 0.029 | inactive: -0.009 | inactive: -0.006 | inactive: -0.004 | inactive: 0.012 | inactive: 0 | inactive: 0.072 | inactive: -0.006 | inactive: 0.013 | inactive: -0.034 | inactive: -0.032 | inactive: -0.011 | inactive: -0.029
TTI1 (UniProt O43156) | inactive: 0 | inactive: 0.014 | inactive: 0.018 | inactive: -0.049 | inactive: -0.029 | inactive: 0.013 | inactive: 0.02 | inactive: 0.068 | inactive: -0.009 | inactive: 0.026 | inactive: 0.006 | inactive: -0.012 | inactive: 0.055 | inactive: -0.093 | inactive: -0.026 | inactive: 0.006 | inactive: -0.074 | inactive: 0.019 | inactive: -0.003 | inactive: 0.006
TSR1 (UniProt Q2NL82) | inactive: 0 | inactive: -0.004 | inactive: 0.036 | inactive: -0.004 | inactive: 0.021 | inactive: 0.005 | inactive: -0.03 | inactive: 0.007 | inactive: 0.02 | inactive: 0.019 | inactive: 0.032 | inactive: 0.022 | inactive: 0.023 | inactive: -0.033 | inactive: -0.039 | inactive: -0.003 | inactive: 0.048 | inactive: -0.051 | inactive: 0.012 | inactive: 0.025
TTF2 (UniProt Q9UNY4) | inactive: 0.003 | inactive: -0.121 | inactive: 0.035 | inactive: -0.006 | inactive: -0.02 | inactive: 0.037 | inactive: -0.084 | inactive: -0.058 | inactive: -0.018 | inactive: -0.115 | inactive: 0.008 | inactive: 0.037 | inactive: 0.027 | inactive: -0.028 | inactive: 0.022 | inactive: 0.003 | inactive: -0.003 | inactive: -0.026 | inactive: 0.025 | inactive: 0.024
TSC22D1 (UniProt Q15714) | inactive: -0.099 | inactive: -0.062 | inactive: -0.014 | inactive: 0.001 | inactive: -0.058 | inactive: 0 | inactive: -0.018 | inactive: 0.037 | inactive: -0.024 | inactive: 0.008 | inactive: -0.009 | inactive: -0.01 | inactive: -0.099 | inactive: 0.021 | inactive: 0.02 | inactive: 0.017 | inactive: -0.097 | inactive: 0.005 | inactive: 0.01 | inactive: 0.032
TTC38 (UniProt Q5R3I4) | inactive: -0.049 | inactive: 0.033 | inactive: 0.008 | inactive: 0.007 | inactive: -0.011 | inactive: 0.005 | active: 0.332 | inactive: -0.013 | inactive: 0.067 | inactive: 0.014 | inactive: 0.035 | inactive: 0.03 | inactive: 0.102 | inactive: 0.004 | inactive: -0.001 | inactive: -0.047 | inactive: 0.189 | inactive: -0.181 | inactive: -0.026 | inactive: -0.027
TRIM56 (UniProt Q9BRZ2) | inactive: 0.023 | inactive: 0.007 | inactive: 0.028 | inactive: 0.001 | inactive: -0.03 | inactive: 0 | inactive: 0.002 | inactive: -0.06 | inactive: 0.014 | inactive: 0.033 | inactive: 0.026 | inactive: 0.026 | inactive: -0.039 | inactive: 0.006 | inactive: -0.029 | inactive: -0.04 | inactive: 0.227 | inactive: -0.102 | inactive: 0.031 | inactive: -0.019
TSFM (UniProt P43897) | inactive: 0.004 | inactive: -0.05 | inactive: 0.03 | inactive: 0.026 | inactive: 0.015 | inactive: -0.024 | inactive: -0.003 | inactive: 0.116 | inactive: 0.017 | inactive: -0.063 | inactive: -0.007 | inactive: 0.005 | inactive: 0.031 | inactive: -0.041 | inactive: -0.089 | inactive: 0.006 | inactive: 0.081 | inactive: -0.05 | inactive: -0.014 | inactive: -0.012

Fetched one by one from the list above (2):
Target | log2 fold change (ibrutinib) | log2 fold change [1] | log2 fold change (ralimetinib) | log2 fold change [2] | log2 fold change [3] | log2 fold change [4] | log2 fold change [5] | log2 fold change [6] | log2 fold change [7] | log2 fold change [8] | log2 fold change (vemurafenib) | log2 fold change [9] | log2 fold change (barasertib) | log2 fold change [10] | log2 fold change (volasertib) | log2 fold change [11] | log2 fold change [12] | log2 fold change [13] | log2 fold change (saracatinib) | log2 fold change (sotrastaurin)
TTI2 (UniProt Q6NXR4) | inactive: 0.012 | inactive: 0.016 | inactive: 0.019 | inactive: -0.062 | inactive: -0.004 | inactive: -0.009 | inactive: 0.018 | inactive: -0.009 | inactive: -0.015 | inactive: -0.017 | inactive: -0.009 | inactive: 0 | inactive: 0.005 | inactive: -0.022 | inactive: -0.048 | inactive: -0.004 | inactive: 0 | inactive: 0.035 | inactive: 0.037 | inactive: 0.031
TSSC4 (UniProt Q9Y5U2) | inactive: 0.011 | inactive: -0.074 | inactive: 0.004 | inactive: 0.007 | inactive: 0.046 | inactive: -0.089 | inactive: -0.021 | inactive: 0.05 | inactive: 0 | inactive: -0.015 | inactive: 0.008 | inactive: -0.013 | inactive: -0.016 | inactive: 0.071 | inactive: -0.005 | inactive: 0.014 | inactive: -0.096 | inactive: 0.022 | inactive: -0.086 | inactive: -0.004
